No constants are given. Whether binding was seen depends on the method and setting. Some binding calls cover weakened binding; strength is not graded here.
Biological target: Gly-Gly-Gly-BLS: lumazine synthase from Brucella abortus with an N-terminal Gly-tag after TEV digestion (Brucella abortus) (UniProt Q2YKV1)
Assay: SEC; both purified

Chains of the proteins cited; added tags and fusions are not shown.
UniProt Q2YKV1: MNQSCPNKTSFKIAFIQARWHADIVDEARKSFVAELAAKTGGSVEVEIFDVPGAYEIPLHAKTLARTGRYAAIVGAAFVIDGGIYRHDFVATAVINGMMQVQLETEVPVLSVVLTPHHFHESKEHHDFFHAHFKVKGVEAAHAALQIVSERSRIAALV

With “Gly-Gly-Gly-BLS: lumazine synthase from Brucella abortus with an N-terminal Gly-tag after TEV digestion (from UniProt Q2YKV1 1-158) (enzyme)” the binding was “binds”.
